Laboratory results from US20220348648A1.
No constants are given. Whether binding was seen depends on the method and setting. Some entries that bind do so weakly or less than the wild type.

The chains behind the UniProt entries cited, without tags or fusion partners. Residues count along the entry.
UniProt Q9NYJ7, residues 27-492: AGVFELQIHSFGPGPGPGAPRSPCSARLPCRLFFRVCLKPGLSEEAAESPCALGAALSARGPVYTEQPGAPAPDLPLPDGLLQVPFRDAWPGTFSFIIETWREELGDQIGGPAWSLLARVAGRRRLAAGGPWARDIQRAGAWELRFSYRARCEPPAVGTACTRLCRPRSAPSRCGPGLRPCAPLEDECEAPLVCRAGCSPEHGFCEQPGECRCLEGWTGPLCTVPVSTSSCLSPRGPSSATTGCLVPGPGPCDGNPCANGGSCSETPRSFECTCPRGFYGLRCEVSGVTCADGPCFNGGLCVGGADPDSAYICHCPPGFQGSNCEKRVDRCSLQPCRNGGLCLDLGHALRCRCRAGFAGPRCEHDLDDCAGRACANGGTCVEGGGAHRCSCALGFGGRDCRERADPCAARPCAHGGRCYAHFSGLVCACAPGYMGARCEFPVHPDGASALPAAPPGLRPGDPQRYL

How the values were obtained:
[1] = biological target: DLL3 (as tested in FIG. 7) (UniProt Q9NYJ7); test: FIG. 7; assay not described
[2] = biological target: DLL3 (as tested in FIG. 7) (UniProt Q9NYJ7); test: FIG. 7 legend; assay not described
[3] = biological target: Histidine-tagged DLL3 antigen (DLL3-His) (Homo sapiens (Human)) (UniProt Q9NYJ7); test: Carterra array SPR epitope binning with DLL3-His

Measured: binding

B1: 2-C8-A (antibody, V domains shown)
VH: EVQLVESGGGLVQPGGSQRLSCAASGFTFSSYWMNWVRQAPGKGLEWVANIKEDGSEKYYVDSVKGRFTISRDNAKNSLYLQMNSLRAEDTAVYYCARDPGWAPFDYWGQGTLVTVSS
VL: DIQMSQSPSSLSASVGDRVTITCRASQGISNYLAWFQQKPGKAPKSLIYAASSLQSGVPSKFSGSGSGTDFTLAISSLQPEDFATYYCQQYNSFPYTFGQGTTLEIK
binds: [1] | [2] | [3]
